The text below walks through data of US20040234530A1.

By UniProt entry, the sequences of proteins in these tests, tags left out. Residues count along the entry.
UniProt P05155, residues 23-500: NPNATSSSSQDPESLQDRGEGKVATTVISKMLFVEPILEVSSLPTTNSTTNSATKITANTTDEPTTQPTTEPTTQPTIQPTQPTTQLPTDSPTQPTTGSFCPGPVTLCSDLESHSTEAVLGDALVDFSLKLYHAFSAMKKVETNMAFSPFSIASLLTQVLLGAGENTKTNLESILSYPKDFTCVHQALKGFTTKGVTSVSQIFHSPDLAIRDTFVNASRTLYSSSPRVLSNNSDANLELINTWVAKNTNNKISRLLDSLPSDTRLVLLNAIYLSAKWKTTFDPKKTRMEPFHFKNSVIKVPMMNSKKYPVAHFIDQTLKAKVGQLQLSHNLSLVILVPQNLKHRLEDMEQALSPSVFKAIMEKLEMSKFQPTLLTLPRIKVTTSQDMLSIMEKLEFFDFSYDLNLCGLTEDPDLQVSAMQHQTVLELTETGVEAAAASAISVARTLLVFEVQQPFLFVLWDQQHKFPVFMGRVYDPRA

Test [1] deals with C1-esterase inhibitor (human plasma protease C1 inhibitor), purified or in human serum (human) (UniProt P05155). Kind of test: Far Western blot of 2D-separated human serum fraction, detection with HRP anti-His antibody.
Test [2] shares this target. The test can be described thus: Far Western blot, MALDI-MS of the spot.

These are yes or no findings as the source states them, for the method shown. Some entries that bind do so weakly or less than the wild type.

Take “StcE-His (recombinant his-tagged form of StcE, from pWL107 in BL21(DE3), strain WAM2572) (from UniProt O82882 36-898) (enzyme)”: the binding result in test [1] and in test [2] was “binds” throughout.
